Test results reported in article doi:10.1101/069161.
No constants are given. Whether binding was seen depends on the method and setting. Binding seen in cells or lysates may run through a third protein. Some binding calls cover weakened binding; strength is not graded here. Sequences can lack the tags named with a protein. Values belong to the molecule of their own block, whether it stands above or below them.

The chains behind the UniProt entries cited, without tags or fusion partners.
UniProt P04150: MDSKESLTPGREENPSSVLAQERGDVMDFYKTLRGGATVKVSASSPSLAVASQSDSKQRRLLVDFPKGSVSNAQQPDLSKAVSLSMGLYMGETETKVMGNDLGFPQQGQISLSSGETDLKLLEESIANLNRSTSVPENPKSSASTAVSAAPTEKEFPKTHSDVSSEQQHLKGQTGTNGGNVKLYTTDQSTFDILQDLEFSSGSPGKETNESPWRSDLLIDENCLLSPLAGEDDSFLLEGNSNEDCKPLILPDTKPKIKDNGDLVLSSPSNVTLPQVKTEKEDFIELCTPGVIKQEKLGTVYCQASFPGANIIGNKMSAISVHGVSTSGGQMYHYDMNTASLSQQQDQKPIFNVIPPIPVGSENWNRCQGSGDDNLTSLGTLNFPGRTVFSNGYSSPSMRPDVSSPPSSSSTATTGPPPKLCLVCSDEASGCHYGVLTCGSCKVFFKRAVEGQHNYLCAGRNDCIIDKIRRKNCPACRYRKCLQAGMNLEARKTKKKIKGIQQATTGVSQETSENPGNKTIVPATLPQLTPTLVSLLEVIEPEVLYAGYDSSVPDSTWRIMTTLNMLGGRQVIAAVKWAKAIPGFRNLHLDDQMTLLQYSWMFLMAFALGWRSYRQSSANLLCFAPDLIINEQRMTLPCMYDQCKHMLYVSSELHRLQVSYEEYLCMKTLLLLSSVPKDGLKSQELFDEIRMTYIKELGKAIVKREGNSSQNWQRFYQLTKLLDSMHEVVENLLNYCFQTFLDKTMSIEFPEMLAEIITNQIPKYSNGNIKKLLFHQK
UniProt Q9UHX1: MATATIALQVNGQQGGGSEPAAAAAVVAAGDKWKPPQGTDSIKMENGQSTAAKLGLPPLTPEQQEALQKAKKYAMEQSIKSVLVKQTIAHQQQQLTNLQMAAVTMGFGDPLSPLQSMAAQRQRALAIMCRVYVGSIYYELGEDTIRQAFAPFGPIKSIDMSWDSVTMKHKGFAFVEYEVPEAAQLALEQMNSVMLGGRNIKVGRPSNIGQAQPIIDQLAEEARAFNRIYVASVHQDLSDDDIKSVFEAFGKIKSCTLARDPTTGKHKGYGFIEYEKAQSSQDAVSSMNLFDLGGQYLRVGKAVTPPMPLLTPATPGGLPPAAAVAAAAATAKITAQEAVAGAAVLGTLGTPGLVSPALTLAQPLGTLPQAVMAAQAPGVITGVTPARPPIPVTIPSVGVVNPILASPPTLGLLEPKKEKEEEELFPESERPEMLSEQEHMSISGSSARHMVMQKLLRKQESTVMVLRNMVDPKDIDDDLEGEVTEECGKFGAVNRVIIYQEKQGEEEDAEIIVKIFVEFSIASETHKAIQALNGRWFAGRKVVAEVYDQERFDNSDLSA
UniProt P26368: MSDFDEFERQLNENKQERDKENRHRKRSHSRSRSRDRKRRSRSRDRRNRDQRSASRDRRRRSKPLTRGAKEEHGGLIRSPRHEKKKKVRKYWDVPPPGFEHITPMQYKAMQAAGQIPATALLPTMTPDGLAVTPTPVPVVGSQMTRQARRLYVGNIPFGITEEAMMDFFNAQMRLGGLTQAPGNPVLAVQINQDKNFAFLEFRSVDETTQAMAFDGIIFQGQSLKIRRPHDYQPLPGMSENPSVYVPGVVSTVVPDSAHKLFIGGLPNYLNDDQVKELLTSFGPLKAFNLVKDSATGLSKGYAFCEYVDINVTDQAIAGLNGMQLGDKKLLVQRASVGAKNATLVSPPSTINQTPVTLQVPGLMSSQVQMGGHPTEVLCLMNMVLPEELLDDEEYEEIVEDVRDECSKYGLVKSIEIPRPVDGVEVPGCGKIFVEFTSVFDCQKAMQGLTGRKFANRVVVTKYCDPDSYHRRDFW

Columns and labels:
Assay in all cases: co-IP
[1] = target: T1, FLAG-hARGLU1 (arginine and glutamate rich 1, full length) (human) (UniProt Q9NWB6)
T1 sequence: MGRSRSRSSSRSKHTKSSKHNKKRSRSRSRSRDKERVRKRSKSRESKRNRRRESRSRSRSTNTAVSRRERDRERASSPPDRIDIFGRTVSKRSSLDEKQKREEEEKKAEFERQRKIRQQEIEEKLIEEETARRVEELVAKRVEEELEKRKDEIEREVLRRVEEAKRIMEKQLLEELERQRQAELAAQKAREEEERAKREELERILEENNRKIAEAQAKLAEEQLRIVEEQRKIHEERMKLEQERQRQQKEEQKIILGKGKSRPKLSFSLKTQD

[2] = target: HA-hGR (glucocorticoid receptor) (human) (UniProt P04150)
[3] = target: FLAG-PUF60 (human) (UniProt Q9UHX1)
[4] = target: FLAG-U2AF2 (human) (UniProt P26368)

- binding [1]: binds
Molecule: HA-hGR (glucocorticoid receptor) (from UniProt P04150 1-777)

- binding [3]: binds
- binding [4]: binds
B2: HA-hARGLU1 (protein, UniProt Q9NWB6-1 1-273)
chain: MGRSRSRSSSRSKHTKSSKHNKKRSRSRSRSRDKERVRKRSKSRESKRNRRRESRSRSRSTNTAVSRRERDRERASSPPDRIDIFGRTVSKRSSLDEKQKREEEEKKAEFERQRKIRQQEIEEKLIEEETARRVEELVAKRVEEELEKRKDEIEREVLRRVEEAKRIMEKQLLEELERQRQAELAAQKAREEEERAKREELERILEENNRKIAEAQAKLAEEQLRIVEEQRKIHEERMKLEQERQRQQKEEQKIILGKGKSRPKLSFSLKTQD

The remaining lines, values behind:

B1: FLAG-hARGLU1 (arginine and glutamate rich 1, full length) (protein, UniProt Q9NWB6-1 1-273)
chain: MGRSRSRSSSRSKHTKSSKHNKKRSRSRSRSRDKERVRKRSKSRESKRNRRRESRSRSRSTNTAVSRRERDRERASSPPDRIDIFGRTVSKRSSLDEKQKREEEEKKAEFERQRKIRQQEIEEKLIEEETARRVEELVAKRVEEELEKRKDEIEREVLRRVEEAKRIMEKQLLEELERQRQAELAAQKAREEEERAKREELERILEENNRKIAEAQAKLAEEQLRIVEEQRKIHEERMKLEQERQRQQKEEQKIILGKGKSRPKLSFSLKTQD
- binding [2]: binds

B3: FLAG-MAZ (MYC-associated zinc finger protein) (protein, UniProt P56270 1-477)
chain: MFPVFPCTLLAPPFPVLGLDSRGVGGLMNSFPPPQGHAQNPLQVGAELQSRFFASQGCAQSPFQAAPAPPPTPQAPAAEPLQVDLLPVLAAAQESAAAAAAAAAAAAAVAAAPPAPAAASTVDTAALKQPPAPPPPPPPVSAPAAEAAPPASAATIAAAAATAVVAPTSTVAVAPVASALEKKTKSKGPYICALCAKEFKNGYNLRRHEAIHTGAKAGRVPSGAMKMPTMVPLSLLSVPQLSGAGGGGGEAGAGGGAAAVAAGGVVTTTASGKRIRKNHACEMCGKAFRDVYHLNRHKLSHSDEKPYQCPVCQQRFKRKDRMSYHVRSHDGAVHKPYNCSHCGKSFSRPDHLNSHVRQVHSTERPFKCEKCEAAFATKDRLRAHTVRHEEKVPCHVCGKMLSSAYISDHMKVHSQGPHHVCELCNKGTGEVCPMAAAAAAAAAAAAAAVAAPPTAVGSLSGAEGVPVSSQPLPSQPW
- binding [2]: no binding
